Measured values: publication PMC9871967
These are yes or no findings as the source states them, for the method shown. In cells and extracts the contact can be indirect. Some results given as binding are weak or reduced against the parent protein; the word gives no strength.

Protein sequences, listed by entry. Tags and fused reporters are not part of them.
UniProt P22626: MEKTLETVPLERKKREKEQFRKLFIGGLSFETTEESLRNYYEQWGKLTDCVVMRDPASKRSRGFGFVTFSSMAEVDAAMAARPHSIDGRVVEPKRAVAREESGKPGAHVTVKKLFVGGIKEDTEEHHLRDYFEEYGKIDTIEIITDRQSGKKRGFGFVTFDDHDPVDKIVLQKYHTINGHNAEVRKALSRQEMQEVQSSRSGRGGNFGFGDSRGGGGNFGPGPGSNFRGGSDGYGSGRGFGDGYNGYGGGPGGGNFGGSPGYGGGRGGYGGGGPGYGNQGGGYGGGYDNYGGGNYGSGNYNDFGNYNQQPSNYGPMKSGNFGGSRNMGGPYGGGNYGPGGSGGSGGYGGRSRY

B1: TANK-binding kinase 1 (enzyme, UniProt Q9UHD2 1-729)
chain: MQSTSNHLWLLSDILGQGATANVFRGRHKKTGDLFAIKVFNNISFLRPVDVQMREFEVLKKLNHKNIVKLFAIEEETTTRHKVLIMEFCPCGSLYTVLEEPSNAYGLPESEFLIVLRDVVGGMNHLRENGIVHRDIKPGNIMRVIGEDGQSVYKLTDFGAARELEDDEQFVSLYGTEEYLHPDMYERAVLRKDHQKKYGATVDLWSIGVTFYHAATGSLPFRPFEGPRRNKEVMYKIITGKPSGAISGVQKAENGPIDWSGDMPVSCSLSRGLQVLLTPVLANILEADQEKCWGFDQFFAETSDILHRMVIHVFSLQQMTAHKIYIHSYNTATIFHELVYKQTKIISSNQELIYEGRRLVLEPGRLAQHFPKTTEENPIFVVSREPLNTIGLIYEKISLPKVHPRYDLDGDASMAKAITGVVCYACRIASTLLLYQELMRKGIRWLIELIKDDYNETVHKKTEVVITLDFCIRNIEKTVKVYEKLMKINLEAAELGEISDIHTKLLRLSSSQGTIETSLQDIDSRLSPGGSLADAWAHQEGTHPKDRNVEKLQVLLNCMTEIYYQFKKDKAERRLAYNEEQIHKFDKQKLYYHATKAMTHFTDECVKKYEAFLNKSEEWIRKMLHLRKQLLSLTNQCFDIEEEVSKYQEYTNELQETLPQKMFTASSGIKHTMTPIYPSSNTLVEMTLGMKKLKEEMEGVVKELAENNHILERFGSLTMDGGLRNVDCL
B2: IFN regulatory factor 3 (protein, UniProt Q14653 1-427)
chain: MGTPKPRILPWLVSQLDLGQLEGVAWVNKSRTRFRIPWKHGLRQDAQQEDFGIFQAWAEATGAYVPGRDKPDLPTWKRNFRSALNRKEGLRLAEDRSKDPHDPHKIYEFVNSGVGDFSQPDTSPDTNGGGSTSDTQEDILDELLGNMVLAPLPDPGPPSLAVAPEPCPQPLRSPSLDNPTPFPNLGPSENPLKRLLVPGEEWEFEVTAFYRGRQVFQQTISCPEGLRLVGSEVGDRTLPGWPVTLPDPGMSLTDRGVMSYVRHVLSCLGGGLALWRAGQWLWAQRLGHCHTYWAVSEELLPNSGHGPDGEVPKDKEGGVFDLGPFIVDLITFTEGSGRSPRYALWFCVGESWPQDQPWTKRLVMVKVVPTCLRALVEMARVGGASSLENTVDLHISNSHPLSLTSDQYKAYLQDLVEGMDFQGPGES

Target: heterogeneous nuclear ribonucleoprotein A2B1 (human (endogenous in HepG2.2.15, HepAD38, HepG2)) (UniProt P22626)
Assay: co-IP; HepG2.2.15, HepAD38 and HepG2 cells cultured with PAC5 (2 μmol/L) for the indicated time; lysates (RIPA buffer) immunoprecipitated with anti-hnRNPA2B1 or IgG at 4 °C overnight, protein A/G agarose; IRF3, TBK1, hnRNPA2B1 examined by western blotting

| Binder | binding |
| --- | --- |
| B1 | binds |
| B2 | binds |
